PubChem BioAssay AID1053208 – Peter MacCallum Cancer Centre – 2014
In all, the deposit lists about 17,000 reagents; below is a random part of them. 788 of them (4.7%) count as active. 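Calls rest on z-score classes alone; an extra cut-off of viability at most 70% of control was not applied to them.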 Unmarked entries are inactive. The numbers tell different reagents against one gene apart. Not all columns of the deposit are shown.

Purpose: 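Genes whose silencing cuts survival of bone tumour cells only with doxorubicin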 (primary screen)
Cells: mouse osteosarcoma cells, early-passage culture from an engineered mouse model of fibroblastic bone tumour
Knock-down reagent: siRNA pool against mouse genes, 40 nM
Timing: about 120 h (48 h before drug, then 72 h with drug)
Challenge: doxorubicin 100 nM for 72 h, roughly 30-40% inhibitory dose
Detection: 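Viability read as ATP luminescence after 72 h of 100 nM doxorubicin or none, duplicate wells averaged, scaled to non-targeting siRNA, then expressed as robust z-scores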
Direction: viability z-score with doxorubicin: higher = more viable cells under doxorubicin; viability z-score without drug: higher = more viable cells with knock-down alone
Rule for the call: 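a pool counts as active when its viability z-score with doxorubicin is -2 or below and its z-score without drug lies between -2 and 2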

With Dnase1l2 (GeneID 66705), how do the results read?
combined z-score class: no change with or without drug; viability z-score with doxorubicin: 1.35; viability z-score without drug: 1.85

With Col8a1 (GeneID 12837), what was measured?
combined z-score class: no change with or without drug; viability z-score with doxorubicin: 1.57; viability z-score without drug: 0.84

Which result is listed for Il36g (GeneID 215257)?
combined z-score class: low cell count with doxorubicin only (active); viability z-score with doxorubicin: -2.14; viability z-score without drug: -1.35

With Or52e3 (GeneID 258246), what does the deposit list?
combined z-score class: low cell count with doxorubicin only (active); viability z-score with doxorubicin: -2.02; viability z-score without drug: -0.84

Which result is listed for Padi6 (GeneID 242726)?
combined z-score class: no change with or without drug; viability z-score with doxorubicin: -0.67; viability z-score without drug: 1.18

What is on record for Pla2g2c (GeneID 18781)?
combined z-score class: no change with or without drug; viability z-score with doxorubicin: -0.45; viability z-score without drug: -0.34

With Rbck1 (GeneID 24105), what was measured?
combined z-score class: low cell count with and without drug; viability z-score with doxorubicin: -2.02; viability z-score without drug: -3.2

How did the screen score Ggn (GeneID 243897)?
combined z-score class: high cell count without drug only; viability z-score with doxorubicin: 0.9; viability z-score without drug: 2.19

What did the screen give for Gpld1 (GeneID 14756)?
combined z-score class: no change with or without drug; viability z-score with doxorubicin: 0.11; viability z-score without drug: 1.52

For Dapk2 (GeneID 13143), what does the deposit list?
combined z-score class: no change with or without drug; viability z-score with doxorubicin: 1.12; viability z-score without drug: 0.34

How did the screen score Cfap36 (GeneID 216618)?
combined z-score class: high cell count with and without drug; viability z-score with doxorubicin: 2.02; viability z-score without drug: 2.19

What is on record for Zbtb8b (GeneID 215627)?
combined z-score class: no change with or without drug; viability z-score with doxorubicin: -1.57; viability z-score without drug: 0.17

Which result is listed for Or5an10 (GeneID 258682)?
combined z-score class: low cell count with and without drug; viability z-score with doxorubicin: -2.25; viability z-score without drug: -2.53

How did the screen score Or2k2 (GeneID 258922)?
combined z-score class: no change with or without drug; viability z-score with doxorubicin: 1.35; viability z-score without drug: 1.85

Which result is listed for A630091E08Rik (GeneID 233544)?
combined z-score class: no change with or without drug; viability z-score with doxorubicin: 0.34; viability z-score without drug: 0.34

With Dsg3 (GeneID 13512), how do the results read?
combined z-score class: low cell count with doxorubicin only (active); viability z-score with doxorubicin: -2.25; viability z-score without drug: 0

What did the screen give for Pde12 (GeneID 211948)?
combined z-score class: no change with or without drug; viability z-score with doxorubicin: 1.35; viability z-score without drug: 0.84

With Ren2 (GeneID 19702), how do the results read?
combined z-score class: no change with or without drug; viability z-score with doxorubicin: -0.45; viability z-score without drug: -1.18

For Nipbl (GeneID 71175) #1, what was measured?
combined z-score class: low cell count with and without drug; viability z-score with doxorubicin: -4.5; viability z-score without drug: -2.87

For Nipbl (GeneID 71175) #2, how do the results read?
combined z-score class: no change with or without drug; viability z-score with doxorubicin: -0.45; viability z-score without drug: 0.67

For Themis (GeneID 210757), how do the results read?
combined z-score class: no change with or without drug; viability z-score with doxorubicin: -0.45; viability z-score without drug: 1.18

What is on record for Acy1 (GeneID 109652)?
combined z-score class: low cell count with doxorubicin only (active); viability z-score with doxorubicin: -2.47; viability z-score without drug: 0.67

For 4930483J18Rik (GeneID 67638), what does the deposit list?
combined z-score class: low cell count with doxorubicin only (active); viability z-score with doxorubicin: -2.25; viability z-score without drug: -0.17

For Ehbp1 (GeneID 216565), how do the results read?
combined z-score class: no change with or without drug; viability z-score with doxorubicin: 0; viability z-score without drug: -0.51

How did the screen score Sgk3 (GeneID 170755)?
combined z-score class: no change with or without drug; viability z-score with doxorubicin: 0.45; viability z-score without drug: 1.52

With Podn (GeneID 242608), what does the deposit list?
combined z-score class: low cell count with doxorubicin only (active); viability z-score with doxorubicin: -2.02; viability z-score without drug: -1.18

With Sec22a (GeneID 317717), what was measured?
combined z-score class: no change with or without drug; viability z-score with doxorubicin: 0.9; viability z-score without drug: 0.84

What did the screen give for Zyx (GeneID 22793)?
combined z-score class: no change with or without drug; viability z-score with doxorubicin: 1.01; viability z-score without drug: -0.67

No new results follow: 5 of the entries above.
4930483J18Rik (GeneID 67638): combined z-score class = low cell count with doxorubicin only (active); viability z-score with doxorubicin = -2.25; viability z-score without drug = -0.17
Ehbp1 (GeneID 216565): combined z-score class = no change with or without drug; viability z-score with doxorubicin = 0; viability z-score without drug = -0.51
Sgk3 (GeneID 170755): combined z-score class = no change with or without drug; viability z-score with doxorubicin = 0.45; viability z-score without drug = 1.52
Podn (GeneID 242608): combined z-score class = low cell count with doxorubicin only (active); viability z-score with doxorubicin = -2.02; viability z-score without drug = -1.18
Sec22a (GeneID 317717): combined z-score class = no change with or without drug; viability z-score with doxorubicin = 0.9; viability z-score without drug = 0.84
